Assay results published in patent US7629130B2 (priority 2005, dated 2009).
At least one structure is not confirmed: it was looked up by name or label, or the drawing left a doubt.

Test system: L. pneumophila within Dictyostelium
Format: cell-based, Legionella pneumophila

In the case of `O=c1cc(N2CCOCC2)oc2c(-c3ccccc3)cccc12` [LY294002], the “intracellular growth of GFP-labeled L. pneumophila compared to untreated wild-type amoebae” value is reported as “grew earlier and more efficiently” and the “intracellular replication in ΔPI3K1/2 treated with LY” value is reported as “did not enhance intracellular replication further”.
